US20120082679A1 (Merck Sharp & Dohme, published 2012)
Residue numbers refer to the chain shown, from its start. These are yes or no findings as the source states them, for the method shown. Some results given as binding are weak or reduced against the parent protein; the word gives no strength.

Chains of the proteins cited; added tags and fusions are not shown. Residues count along the entry.
UniProt Q8NBP7, residues 31-692: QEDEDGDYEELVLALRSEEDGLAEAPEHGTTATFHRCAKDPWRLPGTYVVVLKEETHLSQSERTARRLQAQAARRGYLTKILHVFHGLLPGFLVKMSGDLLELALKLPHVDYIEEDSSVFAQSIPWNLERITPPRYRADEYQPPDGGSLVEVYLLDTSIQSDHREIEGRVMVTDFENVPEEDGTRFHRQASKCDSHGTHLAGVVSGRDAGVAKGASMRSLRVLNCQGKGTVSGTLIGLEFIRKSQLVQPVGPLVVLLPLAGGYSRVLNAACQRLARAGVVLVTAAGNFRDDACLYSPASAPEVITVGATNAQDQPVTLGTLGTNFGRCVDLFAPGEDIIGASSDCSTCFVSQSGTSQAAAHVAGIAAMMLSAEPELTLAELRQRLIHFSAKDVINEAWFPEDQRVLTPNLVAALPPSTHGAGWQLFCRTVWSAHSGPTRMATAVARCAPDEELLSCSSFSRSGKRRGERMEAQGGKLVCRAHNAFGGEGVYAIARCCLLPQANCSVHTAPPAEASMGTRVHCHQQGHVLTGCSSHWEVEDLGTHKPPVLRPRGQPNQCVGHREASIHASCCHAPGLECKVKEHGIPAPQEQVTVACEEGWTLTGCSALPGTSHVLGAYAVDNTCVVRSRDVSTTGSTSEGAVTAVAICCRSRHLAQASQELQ

B1: 3CX4B08 (Fab, V domains shown)
VH: QVQLVESGGGLVQPGGSLRLSCAASGFTFSNYTMNWVRQAPGKGLEWVSFISSSSSETYYADSVKGRFTISRDNSKNTLYLQMNSLRAEDTAVYYCARGYGDMVDLWGQGTLVTVSS
VL: DIELTQPPSVSVAPGQTARISCSGDSIPTYYVAWYQQKPGQAPVLVIYSDTDRPSGIPERFSGSNSGNTATLTISGTQAEDEADYYCQSFDNHGYHVFGGGTKLTVLG
notes: also called 3CX4B08 Fab
B2: 3BX5C01 (Fab, V domains shown)
VH: QVQLVQSGAEVKKPGESLKISCKGSGYSFTSYGISWVRQMPGKGLEWMGMIDPSDSFTTYSPSFQGQVTISADKSISTAYLQWSSLKASDTAMYYCARGYYFTYALQPMDHWGQGTLVTVSS
VL: DIELTQPPSVSVAPGQTARISCSGDNLRDYIVHWYQQKPGQAPVLVIYDDSNRPSGIPERFSGSNSGNTATLTISGTQAEDEADYYCGFDNGGDIDVFGGGTKLTVLG
notes: also called 3BX5C01 Fab
B3: 1CX1G08 (Fab, V domains shown)
VH: QVQLVESGGGLVQPGGSLRLSCAASGFTFSDYWVSWVRQAPGKGLEWVSFISYDGSSTYYADSVKGRFTISRDNSKNTLYLQMNSLRAEDTAVYYCARTYFEGVDVWGQGTLVTVSS
VL: DIELTQPPSVSVAPGQTARISCSGDNIGTYYVHWYQQKPGQAPVLVIYDDSNRPSGIPERFSGSNSGNTATLTISGTQAEDEADYYCGTWDNTSFNLVFGGGTKLTVLG
notes: also called 1CX1G08 Fab
B4: 3CX2A06 (Fab, V domains shown)
VH: QVQLVQSGAEVKKPGESLKISCKGSGYSFSNFWIAWVRQMPGKGLEWMGIIDPSDSWTRYSPSFQGQVTISADKSISTAYLQWSSLKASDTAMYYCARGDGQDFDNWGQGTLVTVSS
VL: DIQMTQSPSSLSASVGDRVTITCRASQNINSYLNWYQQKPGKAPKLLIYAASSLQSGVPSRFSGSGSGTDFTLTISSLQPEDFAVYYCLQNYDLPNTFGQGTKVEIKR
notes: No SPR values are printed for this Fab; also called 3CX2A06 Fab
B5: 3CX3D02 (Fab, V domains shown)
VH: QVQLVQSGAEVKKPGESLKISCKGSGYSFTNSWIGWVRQMPGKGLEWMGIIYPSDSYTIYSPSFQGQVTISADKSISTAYLQWSSLKASDTAMYYCARGGGYYYALMDVWAQGTLVTVSS
VL: B4 VL with N28T, N30S, S31T, Y32W, V85T, N91D, Y92S, D93S, N96L
notes: also called 3CX3D02 Fab

target: recombinant human PCSK9, V5-, His-tagged (human, UniProt Q8NBP7 31-692, limits assumed); assay: ELISA on immobilized V5-, His-tagged PCSK9

| binding | Binder |
| --- | --- |
| binds | B1 |
| binds | B2 |
| binds | B3 |
| binds | B4 |
| binds | B5 |
